# Experimental data: patent publication US10443089B2, “Methods of multiplexing DNA sensors and localizing DNA sensor” (NATIONAL CENTRE FOR BIOLOGICAL SCIENCES (NCBS-TIFR), priority 2013, dated 2019)
# System: IA2.2 cells expressing scFv-furin
# Assay: SimpHony of early and late endosomes with and without Dynasore
# Type: cell-based, Chinese Hamster
# Conditions: presence of 160 μM dynasore
# Description: The DNA sensor of the present disclosure is applied to this system, by marking early endosomes with about 500 nM Tf-I^TfA488/A647 and late endosomes with about 500 nM I^FuA546/A647 in the presence and absence of Dynasore. I^n the absence of Dynasore, early endosomes undergo active fusion and fission; showing an average pH of about 6.05±0.07 (FIG. 17) while the late endosomes show an average pH of about 5.43±0.3.
# FIG. 17 depicts Dynasore mediated arrest of endosomal fission. Early/sorting and late endosomes in IA2.2 cells expressing scFv-furin are marked with about 500 nM Tf-I^TfA488/A647 at 37° C. for 10 min. Time lapse images of control cells (−Dy) where no dynasore is added, (+Dy) in presence of about 160 μM dynasore and (W) after dynasore is washed out and incubated for about 10 min at about 37° C. for recovery. Images are acquired with a time interval of about 2 s over 2 min period and compressed to a movie playing at 7 fps.
smiles,measurement,value
O=C(N/N=C/c1ccc(O)c(O)c1)c1cc2ccccc2cc1O [Dynasore],lumenal pH of late endosomes,5.44±0.38
same,mean lumenal pH of early endosomes,6.58±0.19
